Assay results reported in paper doi:10.1101/2022.06.17.496568.
These are yes or no findings as the source states them, for the method shown. Binding seen in cells or lysates may run through a third protein.

By UniProt entry, the sequences of proteins in these tests, tags left out.
UniProt P23242: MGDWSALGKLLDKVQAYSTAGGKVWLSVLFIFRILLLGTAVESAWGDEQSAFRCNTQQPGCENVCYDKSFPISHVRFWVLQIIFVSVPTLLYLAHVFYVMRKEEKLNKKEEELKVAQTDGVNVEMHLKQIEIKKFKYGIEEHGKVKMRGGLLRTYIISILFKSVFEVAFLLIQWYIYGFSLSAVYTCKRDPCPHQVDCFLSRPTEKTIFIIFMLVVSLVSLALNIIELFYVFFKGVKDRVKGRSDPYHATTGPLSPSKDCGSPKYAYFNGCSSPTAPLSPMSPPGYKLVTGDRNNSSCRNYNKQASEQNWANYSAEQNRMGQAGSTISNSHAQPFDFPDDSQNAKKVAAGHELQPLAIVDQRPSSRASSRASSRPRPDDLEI

Target: connexin43 (Gja1) (mouse) (UniProt P23242)
Assay: co-IP

binding: no binding
B1: BT-IgSF (brain- and testis-specific Ig superfamily protein) (protein, UniProt P0C673 23-428)
chain: LEVSESPGSVQVARGQTAVLPCAFSTSAALLNLNVIWMVIPLSNANQPEQVILYQGGQMFDGALRFHGRVGFTGTMPATNVSIFINNTQLSDTGTYQCLVNNLPDRGGRNIGVTGLTVLVPPSAPQCQIQGSQDLGSDVILLCSSEEGIPRPTYLWEKLDNTLKLPPTATQDQVQGTVTIRNISALSSGLYQCVASNAIGTSTCLLDLQVISPQPRSVGVIAGAVGTGAVLIVICLALISGAFFYWRSKNKEEEEEEIPNEIREDDLPPKCSSAKAFHTEISSSENNTLTSSNTYNSRYWNNNPKPHRNTESFNHFSDLRQSFSGNAVIPSIYANGNHLVLGPHKTLVVTANRGSSPQVLPRNNGSVSRKPWPQHTHSYTVSQMTLERIGAVPVMVPAQSRAGSLV
